Results are given in words; binding and its absence hold for the method and conditions named. In cells and extracts the contact can be indirect. Some results given as binding are weak or reduced against the parent protein; the word gives no strength.
How the values were obtained:
eYFP-WRN(L-C) (human) [1] = molecular target: eYFP-WRN(L-C) (human) (UniProt Q14191); assay: co-IP; eYFP-WRN variants precipitated from HEK293 extracts 24 h after transfection with the anti-eYFP antibody on magnetic beads (lysis buffer with Benzonase and RNase A); Western blot for DNA-PKc, KU86, KU70, PARP1; cells with or without 40 uM hydroquinone
eYFP-WRN(F-R) (human) [2] = molecular target: eYFP-WRN(F-R) (human) (UniProt Q14191); assay: as above
[3] = molecular target: eYFP-WRN Leu1074-Arg1367 variant (human) (UniProt Q14191); assay: as above
[4] = molecular target: eYFP-WRN Phe1074-Cys1367 variant (human) (UniProt Q14191); assay: as above
eYFP-WRN(L-C) (human) [5] = molecular target: eYFP-WRN(L-C) (human) (UniProt Q14191); assay: co-IP; eYFP-WRN(L-C) and eYFP-WRN(F-R) precipitated from transfected WRN-deficient WS fibroblasts AG11395B with an antibody against YFP and magnetic beads, 2 h in a cold room; no Benzonase or RNase A in the lysis buffer (50 mM Tris-HCl pH 8.0, 150 mM NaCl, 1.0% NP-40, 0.1% SDS, 0.5% sodium deoxycholate); Western blot
eYFP-WRN(F-R) (human) [6] = molecular target: eYFP-WRN(F-R) (human) (UniProt Q14191); assay: as above

Amino acid sequences for entries named in this document (tags omitted). A change or cut given only in a name is not applied to a line headed by its entry.
UniProt Q14191: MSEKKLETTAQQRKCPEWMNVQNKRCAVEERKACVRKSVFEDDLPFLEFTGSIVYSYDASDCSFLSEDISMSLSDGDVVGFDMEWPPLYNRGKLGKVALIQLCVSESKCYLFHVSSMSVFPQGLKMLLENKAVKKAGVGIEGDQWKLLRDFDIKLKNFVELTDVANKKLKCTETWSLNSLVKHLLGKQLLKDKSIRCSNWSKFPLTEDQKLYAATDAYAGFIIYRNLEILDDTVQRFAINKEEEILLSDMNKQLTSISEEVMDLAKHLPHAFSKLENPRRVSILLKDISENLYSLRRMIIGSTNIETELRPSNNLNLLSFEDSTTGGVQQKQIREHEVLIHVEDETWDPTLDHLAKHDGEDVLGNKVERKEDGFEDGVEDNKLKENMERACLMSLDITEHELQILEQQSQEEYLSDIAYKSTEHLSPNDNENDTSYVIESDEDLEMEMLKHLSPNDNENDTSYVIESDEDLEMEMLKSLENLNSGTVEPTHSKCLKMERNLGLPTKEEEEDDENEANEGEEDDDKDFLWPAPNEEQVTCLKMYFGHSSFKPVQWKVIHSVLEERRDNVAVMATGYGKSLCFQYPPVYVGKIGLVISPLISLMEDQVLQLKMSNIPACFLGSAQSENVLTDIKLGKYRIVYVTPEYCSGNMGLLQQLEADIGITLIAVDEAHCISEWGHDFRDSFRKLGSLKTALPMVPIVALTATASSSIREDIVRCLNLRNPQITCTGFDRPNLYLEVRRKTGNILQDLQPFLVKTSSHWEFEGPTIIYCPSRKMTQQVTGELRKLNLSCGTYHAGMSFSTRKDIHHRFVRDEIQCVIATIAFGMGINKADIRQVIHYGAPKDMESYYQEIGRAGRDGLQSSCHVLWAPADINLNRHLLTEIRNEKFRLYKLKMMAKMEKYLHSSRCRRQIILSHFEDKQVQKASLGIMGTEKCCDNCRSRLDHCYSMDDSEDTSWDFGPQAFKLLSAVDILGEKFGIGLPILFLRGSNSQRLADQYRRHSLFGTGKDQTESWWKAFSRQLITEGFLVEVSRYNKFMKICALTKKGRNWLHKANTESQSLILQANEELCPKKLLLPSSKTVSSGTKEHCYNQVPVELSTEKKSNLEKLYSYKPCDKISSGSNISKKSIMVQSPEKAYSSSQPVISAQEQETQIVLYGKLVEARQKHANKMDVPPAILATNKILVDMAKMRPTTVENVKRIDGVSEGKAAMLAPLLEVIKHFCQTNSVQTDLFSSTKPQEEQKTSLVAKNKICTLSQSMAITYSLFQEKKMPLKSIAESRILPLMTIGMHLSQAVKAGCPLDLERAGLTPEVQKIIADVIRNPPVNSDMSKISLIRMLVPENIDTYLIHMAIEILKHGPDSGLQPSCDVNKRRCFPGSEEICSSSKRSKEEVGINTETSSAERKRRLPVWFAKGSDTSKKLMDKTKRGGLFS
UniProt P09874: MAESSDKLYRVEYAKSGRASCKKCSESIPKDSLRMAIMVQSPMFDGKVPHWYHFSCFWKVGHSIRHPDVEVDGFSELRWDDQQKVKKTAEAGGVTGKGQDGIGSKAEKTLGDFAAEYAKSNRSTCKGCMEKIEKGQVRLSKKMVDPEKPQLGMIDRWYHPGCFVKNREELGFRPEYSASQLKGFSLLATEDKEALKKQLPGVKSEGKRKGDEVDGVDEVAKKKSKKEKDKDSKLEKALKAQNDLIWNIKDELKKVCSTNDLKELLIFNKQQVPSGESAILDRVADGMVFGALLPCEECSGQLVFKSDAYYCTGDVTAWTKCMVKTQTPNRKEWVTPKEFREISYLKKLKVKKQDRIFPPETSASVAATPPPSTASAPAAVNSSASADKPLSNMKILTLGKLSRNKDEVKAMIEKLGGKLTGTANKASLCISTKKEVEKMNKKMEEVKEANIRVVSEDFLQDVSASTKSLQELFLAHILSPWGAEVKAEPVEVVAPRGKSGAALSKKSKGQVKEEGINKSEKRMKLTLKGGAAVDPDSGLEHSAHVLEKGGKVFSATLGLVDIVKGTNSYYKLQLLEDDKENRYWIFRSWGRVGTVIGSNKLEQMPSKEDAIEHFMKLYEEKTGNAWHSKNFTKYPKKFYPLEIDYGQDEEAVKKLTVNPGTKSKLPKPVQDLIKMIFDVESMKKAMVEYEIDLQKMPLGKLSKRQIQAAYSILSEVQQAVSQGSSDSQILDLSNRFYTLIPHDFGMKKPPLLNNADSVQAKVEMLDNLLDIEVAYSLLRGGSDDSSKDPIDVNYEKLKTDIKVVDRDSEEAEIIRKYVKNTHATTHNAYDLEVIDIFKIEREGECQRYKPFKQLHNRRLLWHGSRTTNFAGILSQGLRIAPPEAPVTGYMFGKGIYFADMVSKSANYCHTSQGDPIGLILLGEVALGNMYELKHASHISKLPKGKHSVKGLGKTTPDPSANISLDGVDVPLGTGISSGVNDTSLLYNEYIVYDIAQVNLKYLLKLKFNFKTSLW
UniProt P78527: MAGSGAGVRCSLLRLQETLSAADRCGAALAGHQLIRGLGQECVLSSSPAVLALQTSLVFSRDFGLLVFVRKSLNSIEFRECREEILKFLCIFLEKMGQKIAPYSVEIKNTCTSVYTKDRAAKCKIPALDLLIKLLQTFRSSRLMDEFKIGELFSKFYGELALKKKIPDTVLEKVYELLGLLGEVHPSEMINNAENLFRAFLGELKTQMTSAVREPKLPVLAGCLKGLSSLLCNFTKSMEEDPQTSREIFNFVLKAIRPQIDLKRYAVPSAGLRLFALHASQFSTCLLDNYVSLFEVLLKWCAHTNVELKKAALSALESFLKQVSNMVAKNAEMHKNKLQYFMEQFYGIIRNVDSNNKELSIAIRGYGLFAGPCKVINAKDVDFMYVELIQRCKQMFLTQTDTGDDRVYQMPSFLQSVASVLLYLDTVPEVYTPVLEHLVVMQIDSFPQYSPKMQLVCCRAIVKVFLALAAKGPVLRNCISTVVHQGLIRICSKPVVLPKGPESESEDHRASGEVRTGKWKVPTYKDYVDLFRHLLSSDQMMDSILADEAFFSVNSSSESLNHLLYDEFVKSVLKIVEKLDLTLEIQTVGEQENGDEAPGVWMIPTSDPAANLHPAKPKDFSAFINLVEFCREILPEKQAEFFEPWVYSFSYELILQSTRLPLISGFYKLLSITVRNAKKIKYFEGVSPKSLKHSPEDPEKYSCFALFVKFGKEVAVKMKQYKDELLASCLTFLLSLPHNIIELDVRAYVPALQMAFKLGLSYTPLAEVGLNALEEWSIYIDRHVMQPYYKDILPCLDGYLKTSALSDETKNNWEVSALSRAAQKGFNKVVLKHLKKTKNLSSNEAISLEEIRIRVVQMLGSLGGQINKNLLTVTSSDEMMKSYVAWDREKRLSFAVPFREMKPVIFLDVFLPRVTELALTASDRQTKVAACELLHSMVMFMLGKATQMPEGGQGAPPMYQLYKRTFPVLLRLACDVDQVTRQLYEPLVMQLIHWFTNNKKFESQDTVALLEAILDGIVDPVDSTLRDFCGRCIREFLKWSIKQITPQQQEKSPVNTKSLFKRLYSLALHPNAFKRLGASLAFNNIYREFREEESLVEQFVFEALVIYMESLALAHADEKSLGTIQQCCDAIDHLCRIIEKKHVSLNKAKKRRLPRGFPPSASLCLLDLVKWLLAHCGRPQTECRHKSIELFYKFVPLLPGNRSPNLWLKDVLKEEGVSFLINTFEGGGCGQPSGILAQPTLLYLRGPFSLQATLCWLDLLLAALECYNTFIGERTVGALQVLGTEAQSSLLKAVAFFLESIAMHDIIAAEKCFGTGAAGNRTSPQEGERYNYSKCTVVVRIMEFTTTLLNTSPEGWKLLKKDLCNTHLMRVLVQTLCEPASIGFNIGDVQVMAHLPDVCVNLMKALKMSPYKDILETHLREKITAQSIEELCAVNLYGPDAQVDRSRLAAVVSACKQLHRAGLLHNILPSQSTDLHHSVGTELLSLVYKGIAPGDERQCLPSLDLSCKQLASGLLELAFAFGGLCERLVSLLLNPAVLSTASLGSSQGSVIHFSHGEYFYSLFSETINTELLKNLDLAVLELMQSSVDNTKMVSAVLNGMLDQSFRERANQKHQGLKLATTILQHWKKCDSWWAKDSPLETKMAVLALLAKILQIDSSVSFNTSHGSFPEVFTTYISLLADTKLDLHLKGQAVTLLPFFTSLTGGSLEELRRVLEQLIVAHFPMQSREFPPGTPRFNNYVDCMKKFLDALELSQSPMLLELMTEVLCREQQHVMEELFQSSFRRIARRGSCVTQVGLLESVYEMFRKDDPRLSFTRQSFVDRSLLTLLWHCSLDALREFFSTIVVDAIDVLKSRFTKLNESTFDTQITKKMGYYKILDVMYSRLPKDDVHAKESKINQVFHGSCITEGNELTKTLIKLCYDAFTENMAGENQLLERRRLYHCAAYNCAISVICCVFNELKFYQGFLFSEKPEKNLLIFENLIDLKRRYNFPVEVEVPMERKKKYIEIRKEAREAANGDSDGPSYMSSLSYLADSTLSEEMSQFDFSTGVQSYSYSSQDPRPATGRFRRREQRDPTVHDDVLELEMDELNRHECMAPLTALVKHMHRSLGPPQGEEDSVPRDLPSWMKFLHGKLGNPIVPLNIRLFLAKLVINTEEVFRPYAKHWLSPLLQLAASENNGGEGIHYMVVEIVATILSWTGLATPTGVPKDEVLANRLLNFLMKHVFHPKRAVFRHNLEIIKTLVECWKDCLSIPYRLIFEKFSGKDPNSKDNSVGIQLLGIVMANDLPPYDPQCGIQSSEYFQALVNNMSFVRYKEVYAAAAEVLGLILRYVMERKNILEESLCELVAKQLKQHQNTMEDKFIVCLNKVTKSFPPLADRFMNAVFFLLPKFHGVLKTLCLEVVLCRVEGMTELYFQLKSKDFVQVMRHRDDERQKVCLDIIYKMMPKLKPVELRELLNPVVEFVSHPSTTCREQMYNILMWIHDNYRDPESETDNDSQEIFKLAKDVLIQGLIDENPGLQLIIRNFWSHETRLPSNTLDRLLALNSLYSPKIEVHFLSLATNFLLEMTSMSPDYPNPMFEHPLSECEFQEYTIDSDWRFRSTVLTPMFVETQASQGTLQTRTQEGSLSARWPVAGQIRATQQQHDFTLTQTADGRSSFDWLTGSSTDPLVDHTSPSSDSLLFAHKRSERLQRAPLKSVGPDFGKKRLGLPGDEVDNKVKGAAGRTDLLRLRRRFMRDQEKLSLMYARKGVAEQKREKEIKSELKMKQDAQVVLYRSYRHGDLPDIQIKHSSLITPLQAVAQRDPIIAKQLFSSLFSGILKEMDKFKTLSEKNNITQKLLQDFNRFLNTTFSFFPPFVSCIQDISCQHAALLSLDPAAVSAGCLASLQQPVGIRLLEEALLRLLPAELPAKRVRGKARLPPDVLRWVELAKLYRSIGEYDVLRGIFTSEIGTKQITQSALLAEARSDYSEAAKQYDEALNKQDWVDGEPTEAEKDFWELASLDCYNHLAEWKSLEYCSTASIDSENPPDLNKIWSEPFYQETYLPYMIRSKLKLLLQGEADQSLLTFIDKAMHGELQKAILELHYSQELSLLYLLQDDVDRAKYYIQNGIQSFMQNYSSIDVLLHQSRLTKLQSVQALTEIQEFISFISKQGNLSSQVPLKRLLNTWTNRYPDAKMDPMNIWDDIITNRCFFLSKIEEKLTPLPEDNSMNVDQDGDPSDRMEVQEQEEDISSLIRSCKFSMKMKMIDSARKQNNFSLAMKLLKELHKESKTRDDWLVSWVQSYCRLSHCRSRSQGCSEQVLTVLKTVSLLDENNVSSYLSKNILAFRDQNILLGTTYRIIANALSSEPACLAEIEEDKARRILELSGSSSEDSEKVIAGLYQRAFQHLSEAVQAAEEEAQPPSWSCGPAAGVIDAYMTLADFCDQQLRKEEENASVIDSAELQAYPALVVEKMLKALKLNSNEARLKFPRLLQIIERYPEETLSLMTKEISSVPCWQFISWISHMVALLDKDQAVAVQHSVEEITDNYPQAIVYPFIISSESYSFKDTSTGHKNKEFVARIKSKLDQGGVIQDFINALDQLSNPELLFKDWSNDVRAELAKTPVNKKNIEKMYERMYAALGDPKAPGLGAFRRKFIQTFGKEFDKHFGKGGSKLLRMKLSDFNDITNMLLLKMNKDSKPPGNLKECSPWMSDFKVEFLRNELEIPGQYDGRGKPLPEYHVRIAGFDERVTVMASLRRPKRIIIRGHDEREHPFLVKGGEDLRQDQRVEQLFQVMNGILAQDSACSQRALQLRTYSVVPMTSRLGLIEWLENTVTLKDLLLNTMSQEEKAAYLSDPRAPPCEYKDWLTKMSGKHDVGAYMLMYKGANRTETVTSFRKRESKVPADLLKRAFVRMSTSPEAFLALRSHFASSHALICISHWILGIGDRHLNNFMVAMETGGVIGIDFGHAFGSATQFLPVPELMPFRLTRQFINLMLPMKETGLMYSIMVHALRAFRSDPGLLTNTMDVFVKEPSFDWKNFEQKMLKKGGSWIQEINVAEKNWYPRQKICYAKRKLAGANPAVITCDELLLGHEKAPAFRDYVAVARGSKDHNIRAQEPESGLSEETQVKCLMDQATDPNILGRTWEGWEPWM

Measured: binding

Poly(ADP-ribose) polymerase 1 (from UniProt P09874 1-1014)
binds weakly: eYFP-WRN(L-C) (human) [5]
binds: all other assays above

DNA-dependent protein kinase catalytic subunit (from UniProt P78527 1-4128)
binds weakly: eYFP-WRN(L-C) (human) [1] | eYFP-WRN(L-C) (human) [5]
binds: all other assays above

From paper PMC5349866
